In paper doi:10.1101/397851:
Results are given in words; binding and its absence hold for the method and conditions named. Binding seen in cells or lysates may run through a third protein. Some entries that bind do so weakly or less than the wild type.

Amino acid sequences for entries named in this document (tags omitted).
UniProt Q924A0: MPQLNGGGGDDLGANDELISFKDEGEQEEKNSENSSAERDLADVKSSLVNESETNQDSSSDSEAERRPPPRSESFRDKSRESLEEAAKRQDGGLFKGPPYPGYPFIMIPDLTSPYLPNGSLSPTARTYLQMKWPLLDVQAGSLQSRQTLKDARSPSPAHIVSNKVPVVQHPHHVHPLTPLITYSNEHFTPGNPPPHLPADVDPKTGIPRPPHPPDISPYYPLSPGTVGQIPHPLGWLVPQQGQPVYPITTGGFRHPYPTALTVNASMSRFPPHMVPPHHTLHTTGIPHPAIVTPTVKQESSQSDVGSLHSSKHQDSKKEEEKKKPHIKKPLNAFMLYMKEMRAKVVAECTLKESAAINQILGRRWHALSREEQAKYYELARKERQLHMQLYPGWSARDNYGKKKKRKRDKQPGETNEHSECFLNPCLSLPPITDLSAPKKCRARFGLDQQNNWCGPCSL
UniProt Q61169: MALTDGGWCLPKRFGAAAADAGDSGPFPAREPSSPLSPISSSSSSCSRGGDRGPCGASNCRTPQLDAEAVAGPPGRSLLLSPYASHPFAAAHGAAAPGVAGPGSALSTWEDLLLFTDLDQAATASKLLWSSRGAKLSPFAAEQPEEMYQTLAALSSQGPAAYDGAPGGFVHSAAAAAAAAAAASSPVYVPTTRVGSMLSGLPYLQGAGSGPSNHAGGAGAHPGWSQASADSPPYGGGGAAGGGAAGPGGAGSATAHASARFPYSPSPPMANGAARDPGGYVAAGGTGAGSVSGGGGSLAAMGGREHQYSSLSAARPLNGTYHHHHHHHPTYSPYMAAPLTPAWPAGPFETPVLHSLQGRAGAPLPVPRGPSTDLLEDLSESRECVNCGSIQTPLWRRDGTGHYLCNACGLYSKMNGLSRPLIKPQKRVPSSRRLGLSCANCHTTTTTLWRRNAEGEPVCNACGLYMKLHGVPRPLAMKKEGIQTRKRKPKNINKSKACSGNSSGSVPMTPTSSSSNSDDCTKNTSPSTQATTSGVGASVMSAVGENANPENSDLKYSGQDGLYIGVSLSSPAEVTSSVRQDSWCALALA

Biological target: TCF7L2 (mouse (endogenous in primary aortic VSMC)) (UniProt Q924A0)
Assay: co-IP

Question: With GATA6 (from UniProt Q61169 1-589) as the substance, how does the binding read?
Answer: binds
